Experimental data published in patent US20070054916A1, “Aryl nitrogen-containing bicyclic compounds and methods of use” (Amgen Inc., priority 2004, published 2007).
Some results were stated once for a whole list of compounds, not compound by compound.

Protein sequences, listed by entry. Tags and fused reporters are not part of them. Residues count along the entry.
UniProt Q02763, 23-1124: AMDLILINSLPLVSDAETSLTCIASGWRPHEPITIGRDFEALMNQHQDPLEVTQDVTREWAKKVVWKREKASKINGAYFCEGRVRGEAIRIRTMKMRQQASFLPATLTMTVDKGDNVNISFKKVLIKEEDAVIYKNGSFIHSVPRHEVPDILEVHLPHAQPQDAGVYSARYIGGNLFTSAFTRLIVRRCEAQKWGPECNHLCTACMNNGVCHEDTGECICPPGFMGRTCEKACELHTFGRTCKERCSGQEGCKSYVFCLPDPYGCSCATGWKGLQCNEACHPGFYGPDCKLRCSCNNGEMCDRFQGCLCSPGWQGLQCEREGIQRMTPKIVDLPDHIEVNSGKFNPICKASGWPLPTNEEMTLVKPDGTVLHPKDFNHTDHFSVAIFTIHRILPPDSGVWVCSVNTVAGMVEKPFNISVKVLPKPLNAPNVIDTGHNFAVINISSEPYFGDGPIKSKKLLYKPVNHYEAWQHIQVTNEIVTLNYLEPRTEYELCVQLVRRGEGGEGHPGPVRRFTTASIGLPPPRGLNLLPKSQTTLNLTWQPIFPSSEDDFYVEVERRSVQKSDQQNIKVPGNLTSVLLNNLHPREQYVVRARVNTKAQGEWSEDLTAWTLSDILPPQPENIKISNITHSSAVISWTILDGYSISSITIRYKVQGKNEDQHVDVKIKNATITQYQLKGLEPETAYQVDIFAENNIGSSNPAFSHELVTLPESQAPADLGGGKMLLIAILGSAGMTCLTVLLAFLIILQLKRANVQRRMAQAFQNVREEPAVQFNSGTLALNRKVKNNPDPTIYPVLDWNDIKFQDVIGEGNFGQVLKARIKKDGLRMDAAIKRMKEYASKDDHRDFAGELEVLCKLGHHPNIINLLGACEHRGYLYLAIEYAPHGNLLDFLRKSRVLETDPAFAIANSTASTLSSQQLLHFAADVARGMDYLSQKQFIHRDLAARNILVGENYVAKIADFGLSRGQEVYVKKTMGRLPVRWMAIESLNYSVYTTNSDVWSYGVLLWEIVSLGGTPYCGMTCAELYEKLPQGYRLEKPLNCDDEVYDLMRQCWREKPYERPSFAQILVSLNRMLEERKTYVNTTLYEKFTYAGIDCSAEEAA

Biological target: Tie-2 kinase enzyme (Homo sapiens, UniProt Q02763)
Assay: Tie-2 Homogenous Time Resolved Flourescent (HTRF) kinase assay
Assay type: biochemical
Settings: read-out: IC50's for the inhibition of Tie-2 as measured by the HTRF assay

Structure (SMILES)	IC50
CN(C)CCN(C)c1ccc(C(F)(F)F)cc1NC(=O)c1cc(-c2ccc3nc(N)ncc3c2)ccc1F [Example 253, 5-(2-amino-6-quinazolinyl)-N-(2-((2-(dimethylamino)ethyl)(methyl)amino)-5-(trifluoromethyl)phenyl)-2-fluorobenzamide]	≤ 1000 nM
CN(C)c1ccc(C(F)(F)F)cc1NC(=O)c1cc(-c2ccc3nc(N)ncc3c2)ccc1F [Example 254, 5-(2-amino-6-quinazolinyl)-N-(2-(dimethylamino)-5-(trifluoromethyl)phenyl)-2-fluorobenzamide]	≤ 1000 nM
CN(C)CCCN(C)c1ccc(C(F)(F)C(F)(F)F)cc1NC(=O)c1cc(-c2ccc3nc(N)ncc3c2)ccc1F [Example 255, 5-(2-amino-6-quinazolinyl)-N-(2-((3-(dimethylamino)propyl)(methyl)amino)-5-(pentafluoroethyl)phenyl)-2-fluorobenzamide]	≤ 1000 nM
CN(C)c1ccc(C(F)(F)F)cc1NC(=O)c1cccc(-c2ccc3nc(N)ncc3c2)c1 [Example 256, 3-(2-amino-6-quinazolinyl)-N-(2-(dimethylamino)-5-(trifluoromethyl)phenyl)benzamide]	≤ 1000 nM
CC(C)(C)c1cccc(NC(=O)c2cccc(-c3ccc4nc(N)ncc4c3)c2)c1 [Example 257, 3-(2-amino-6-quinazolinyl)-N-(3-(1,1-dimethylethyl)phenyl) benzamide]	≤ 1000 nM
CNc1ncc2cc(-c3cccc(C(=O)Nc4cccc(C(C)(C)C)c4)c3)ccc2n1 [Example 258, N-(3-(1,1-dimethylethyl)phenyl)-3-(2-(methylamino)-6-quinazolinyl) benzamide]	≤ 1000 nM
COc1cc(NC(=O)c2cccc(-c3ccc4nc(N)ncc4c3)c2)cc(OC)c1 [Example 259, 3-(2-amino-6-quinazolinyl)-N-(3,5-bis(methyloxy)phenyl)benzamide]	≤ 1000 nM
CC(C)(C)c1cc(NC(=O)c2cccc(-c3ccc4nc(N)ncc4c3)c2)no1 [Example 260, 3-(2-amino-6-quinazolinyl)-N-(5-(1,1-dimethylethyl)-3-isoxazolyl) benzamide]	≤ 1000 nM
Nc1ncc2cc(-c3cccc(C(=O)Nc4cccc(OC(F)(F)C(F)F)c4)c3)ccc2n1 [Example 261, 3-(2-amino-6-quinazolinyl)-N-(3-((1,1,2,2-tetrafluoroethyl)oxy)phenyl) benzamide]	≤ 1000 nM
CC(C)(C)c1cc(NC(=O)c2cccc(-c3ccc4nc(N)ncc4c3)c2)n[nH]1 [Example 262, 3-(2-amino-6-quinazolinyl)-N-(5-(1,1-dimethylethyl)-1H-pyrazol-3-yl)benzamide]	≤ 1000 nM
Nc1ncc2cc(-c3cccc(C(=O)Nc4cccc(Cl)c4)c3)ccc2n1 [Example 263, 3-(2-amino-6-quinazolinyl)-N-(3-chlorophenyl) benzamide]	≤ 1000 nM
CN(C)CCCN(C)c1ccc(Br)cc1NC(=O)c1cc(-c2ccc3nc(N)ncc3c2)ccc1F [Example 264, 5-(2-amino-6-quinazolinyl)-N-(5-bromo-2-((3-(dimethylamino)propyl)(methyl)amino)phenyl)-2-fluorobenzamide]	≤ 1000 nM
CN(C)CCCOc1ccc(C(F)(F)F)cc1NC(=O)c1cc(-c2ccc3nc(N)ncc3c2)ccc1F [Example 265, 5-(2-amino-6-quinazolinyl)-N-(2-((3-(dimethylamino)propyl)oxy)-5-(trifluoromethyl)phenyl)-2-fluorobenzamide]	≤ 1000 nM
Cc1ccc(C(=O)Nc2cc(C3CCN(C)CC3)cc(C(F)(F)F)c2)cc1-c1ccc2nc(N)ncc2c1 [Example 266, 3-(2-amino-6-quinazolinyl)-4-methyl-N-(3-(1-methyl-4-piperidinyl)-5-(trifluoromethyl)phenyl)benzamide]	≤ 1000 nM
Cc1ccc(C(=O)Nc2ccccc2)cc1-c1ccc2nc(N)ncc2c1 [Example 267, 3-(2-amino-6-quinazolinyl)-4-methyl-N-phenylbenzamide]	≤ 1000 nM
Cc1ccc(C(=O)Nc2ccc(Oc3ccccc3)cc2)cc1-c1ccc2nc(N)ncc2c1 [Example 268, 3-(2-amino-6-quinazolinyl)-4-methyl-N-(4-(phenyloxy)phenyl)benzamide]	≤ 1000 nM
COc1ccccc1NC(=O)c1ccc(C)c(-c2ccc3nc(N)ncc3c2)c1 [Example 269, 3-(2-amino-6-quinazolinyl)-4-methyl-N-(2-(methyloxy)phenyl)benzamide]	≤ 1000 nM
Cc1ccc(C(=O)NC2CCCCC2)cc1-c1ccc2nc(N)ncc2c1 [Example 271, 3-(2-amino-6-quinazolinyl)-N-cyclohexyl-4-methylbenzamide]	≤ 1000 nM
Cc1ccc(C(=O)Nc2ccc(Cl)c(C(F)(F)F)c2)cc1-c1ccc2nc(N)ncc2c1 [Example 273, 3-(2-amino-6-quinazolinyl)-N-(4-chloro-3-(trifluoromethyl)phenyl)-4-methylbenzamide]	≤ 1000 nM
Cc1ccc(NC(=O)c2ccc(C)c(-c3ccc4nc(N)ncc4c3)c2)c(N(C)CCCN(C)C)c1 [Example 276, 3-(2-amino-6-quinazolinyl)-N-(2-((3-(dimethylamino)propyl)(methyl)amino)-4-methylphenyl)-4-methylbenzamide]	≤ 1000 nM

Structure (SMILES)	IC50
Cc1ccc(C(=O)Nc2ccc(OCCN3CCCCC3)c(Cl)c2)cc1-c1ccc2nc(N)ncc2c1 [Example 279, 3-(2-amino-6-quinazolinyl)-N-(3-chloro-4-((2-(1-piperidinyl)ethyl)oxy)phenyl)-4-methylbenzamide]	≤ 1000 nM
Cc1ccc(C(=O)Nc2cc(C(F)(F)F)ccc2F)cc1-c1ccc2nc(N)ncc2c1 [Example 280, 3-(2-amino-6-quinazolinyl)-N-(2-fluoro-5-(trifluoromethyl)phenyl)-4-methylbenzamide]	≤ 1000 nM
Cc1ccc(C(=O)Nc2cccc3cccnc23)cc1-c1ccc2nc(N)ncc2c1 [Example 282, 3-(2-amino-6-quinazolinyl)-4-methyl-N-(8-quinolinyl)benzamide]	≤ 1000 nM
COc1c(Cl)cccc1NC(=O)c1ccc(C)c(-c2ccc3nc(N)ncc3c2)c1 [Example 284, 3-(2-amino-6-quinazolinyl)-N-(5-chloro-8-(methyloxy)-phenyl)-4-methylbenzamide]	≤ 1000 nM
CC(=O)N1CC(C)(C)c2ccc(NC(=O)c3ccc(C)c(-c4ccc5nc(N)ncc5c4)c3)cc21 [Example 287, N-(1-acetyl-3,3-dimethyl-2,3-dihydro-1H-indol-6-yl)-3-(2-amino-6-quinazolinyl)-4-methylbenzamide]	≤ 1000 nM
Cc1ccc(C(=O)NCc2ccccn2)cc1-c1ccc2nc(N)ncc2c1 [Example 290, 3-(2-amino-6-quinazolinyl)-4-methyl-N-(2-pyridinylmethyl) benzamide]	≤ 1000 nM
Cc1ccc(C(=O)NCc2cccc(C(F)(F)F)c2)cc1-c1ccc2nc(N)ncc2c1 [Example 292, 3-(2-amino-6-quinazolinyl)-4-methyl-N-((3-(trifluoromethyl)phenyl)methyl) benzamide]	≤ 1000 nM
Cc1ccc(C(=O)Nc2cc(C(F)(F)F)cc(C(F)(F)F)c2)cc1-c1ccc2nc(N)ncc2c1 [Example 293, 3-(2-amino-6-quinazolinyl)-N-(3,5-bis(trifluoromethyl)phenyl)-4-methylbenzamide]	≤ 1000 nM
Cc1ccc(C(=O)Nc2cccc3c2CCC3)cc1-c1ccc2nc(N)ncc2c1 [Example 294, 3-(2-amino-6-quinazolinyl)-N-(2,3-dihydro-1H-inden-4-yl)-4-methylbenzamide]	≤ 1000 nM
CSc1c(NC(=O)c2ccc(C)c(-c3ccc4nc(N)ncc4c3)c2)cccc1C(F)(F)F [Example 295, 3-(2-amino-6-quinazolinyl)-4-methyl-N-(2-(methylsulfanyl)-3-(trifluoromethyl)phenyl)benzamide]	≤ 1000 nM
Cc1ccc(C(=O)Nc2ccc(C(F)(F)C(F)(F)F)cc2)cc1-c1ccc2nc(N)ncc2c1 [Example 296, 3-(2-amino-6-quinazolinyl)-4-methyl-N-(4-(pentafluoroethyl)phenyl)benzamide]	≤ 1000 nM
Cc1ccc(C(=O)N[C@@H](CN(C)C)c2ccccc2)cc1-c1ccc2nc(N)ncc2c1 [Example 298, 3-(2-amino-6-quinazolinyl)-N-((1R)-2-(dimethylamino)-1-phenylethyl)-4-methylbenzamide]	≤ 1000 nM
COc1ccc(NC(=O)c2ccc(C)c(-c3ccc4nc(N)ncc4c3)c2)c(C)c1C [Example 300, 3-(2-amino-6-quinazolinyl)-N-(2,3-dimethyl-4-(methyloxy)phenyl)-4-methylbenzamide]	≤ 1000 nM
CC(=O)N1CCc2cccc(NC(=O)c3ccc(C)c(-c4ccc5nc(N)ncc5c4)c3)c21 [Example 301, N-(1-acetyl-2,3-dihydro-1H-indol-7-yl)-3-(2-amino-6-quinazolinyl)-4-methylbenzamide]	≤ 1000 nM
Cc1ccc(C(=O)Nc2cccc3c2ccn3C)cc1-c1ccc2nc(N)ncc2c1 [Example 302, 3-(2-amino-6-quinazolinyl)-4-methyl-N-(1-indol-4-yl)benzamide]	≤ 1000 nM
Cc1ccc(C(=O)Nc2c3c(nn2CCC#N)CCC3)cc1-c1ccc2nc(N)ncc2c1 [Example 304, 3-(2-amino-6-quinazolinyl)-N-(2-(2-cyanoethyl)-2,4,5,6-tetrahydrocyclopenta [c]pyrazol-3-yl)-4-methylbenzamide]	≤ 1000 nM
Cc1ccc(C(=O)Nc2cc(OC[C@@H]3CCCN3C)cc(C(F)(F)F)c2)cc1-c1ccc2nc(N)ncc2c1 [Example 315, 3-(2-amino-6-quinazolinyl)-4-methyl-N-(3-((((2S)-1-methyl-2-pyrrolidinyl)methyl)oxy)-5-(trifluoromethyl)phenyl)benzamide]	≤ 1000 nM
Cc1ccc(C(=O)Nc2cccc(OC(C)C)c2)cc1-c1ccc2nc(N)ncc2c1 [Example 316, 3-(2-amino-6-quinazolinyl)-4-methyl-N-(3-((1-methylethyl)oxy)phenyl)benzamide]	≤ 1000 nM
CCOc1cccc(NC(=O)c2ccc(C)c(-c3ccc4nc(N)ncc4c3)c2)c1 [Example 317, 3-(2-amino-6-quinazolinyl)-N-(3-(ethyloxy)phenyl)-4-methylbenzamide]	≤ 1000 nM
Cc1ccc(C(=O)Nc2cccc(C(F)(F)F)c2)cc1-c1ccc2nc(N(C)C)ncc2c1 [Example 318, 3-(2-(dimethylamino)-6-quinazolinyl)-4-methyl-N-(3-(trifluoromethyl)phenyl)benzamide]	≤ 1000 nM
